Experimental findings from patent US6348317B1, “Fluorescent and DNA cleavage properties of peptide/dye conjugates” (The Arizona Board of Regents, priority 1999, dated 2002) are described below.

Chains of the proteins cited; added tags and fusions are not shown. Lines headed by an entry give the natural chain unless they say otherwise; changes in a name come on top.
UniProt P06536: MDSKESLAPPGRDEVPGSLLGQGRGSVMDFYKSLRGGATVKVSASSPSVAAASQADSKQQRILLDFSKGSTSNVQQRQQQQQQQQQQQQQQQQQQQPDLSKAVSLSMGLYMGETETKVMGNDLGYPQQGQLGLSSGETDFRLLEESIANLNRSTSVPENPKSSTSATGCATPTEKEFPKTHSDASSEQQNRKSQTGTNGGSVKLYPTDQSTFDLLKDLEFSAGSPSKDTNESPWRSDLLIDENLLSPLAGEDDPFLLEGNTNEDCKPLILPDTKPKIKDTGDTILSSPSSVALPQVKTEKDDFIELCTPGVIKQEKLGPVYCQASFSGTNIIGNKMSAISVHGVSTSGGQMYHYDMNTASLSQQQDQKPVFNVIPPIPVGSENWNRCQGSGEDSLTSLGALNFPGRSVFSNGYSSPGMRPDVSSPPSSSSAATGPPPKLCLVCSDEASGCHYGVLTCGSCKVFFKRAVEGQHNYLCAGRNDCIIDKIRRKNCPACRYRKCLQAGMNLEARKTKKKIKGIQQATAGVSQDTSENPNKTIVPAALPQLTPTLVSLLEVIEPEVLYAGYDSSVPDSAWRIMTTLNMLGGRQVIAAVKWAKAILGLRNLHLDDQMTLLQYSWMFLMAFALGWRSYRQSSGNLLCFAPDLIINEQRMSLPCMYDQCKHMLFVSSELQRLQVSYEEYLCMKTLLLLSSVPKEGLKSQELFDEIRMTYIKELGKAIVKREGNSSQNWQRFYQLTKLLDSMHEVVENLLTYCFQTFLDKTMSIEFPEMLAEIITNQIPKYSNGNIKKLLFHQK

The target in data set [1] is T1, GR N-terminal zinc finger peptide (ZF, GR residues 438-465) (UniProt P06536).
T1 sequence: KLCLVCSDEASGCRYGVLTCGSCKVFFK
In words: FP. To be noted: unconjugated ZF, 50 nM labelled DNA; 20 mM Tris pH 7.9, 30 mM NaCl, 20 mM KCl, 1 mM MgCl2, 5% glycerol, ZnCl2; synthetic protein; label: fluorescein; variant of GRE2.

Data set [2] addresses T2, TO-ZF (thiazole orange-GR zinc finger conjugate) (UniProt P06536).
T2 sequence: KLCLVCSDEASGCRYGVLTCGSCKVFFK
In words: binding assay. As to conditions: fluorescein quenching by energy transfer; 20 mM Tris pH 7.9, 30 mM NaCl, 20 mM KCl, 1 mM MgCl2, 5% glycerol, ZnCl2; synthetic protein; label: fluorescein; variant of GRE2.

For at least one entry, the source does not settle the construct or the ends of the probe. Tags and fusion partners may be left off the protein sequences shown.

Take “TGATACGGCTGACTGTTCTATGA (double strand) [F-GRE2]”: the values for the Kd in data set [1] and in data set [2] were 1100 nM and 14 nM, respectively.

Usually Kd stands for the free concentration of one partner at which half of the binding sites on the other are occupied at equilibrium, for simple one-to-one binding.
